PubChem BioAssay (NCATS)
This list was built around the results that the source calls inconclusive (neither active nor inactive); the mix of calls is not that of the screen. Potencies beside an inconclusive call are fits to weak or partial responses and may not hold up. Activity calls are given as the source filed them. Calls come from the whole dose curve; as a rule, active = well fitted activation curve with a large enough effect; inconclusive = small, poorly fitted or top-dose-only effect, or another doubt; inactive = no such curve, though single readings can be large or run the other way.

Molecular target: Rap guanine nucleotide exchange factor 3 (Homo sapiens) (UniProt O95398)
Experiment: Counterscreen qHTS for agonist of cAMP-regulated guanine nucleotide exchange factor 3 (EPAC1) (AID 1645889); note: nearly all actives have a fitted effect of over 40% in size; for activation: % of control where 0% means no effect
Settings: EPAC1 Rap1B-BODIPY-GDP exchange, fluorescence; activation: at 154 µM (top of the series) unless noted
Procedure, shortened: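 Rap1B–BODIPY-GDP (250 nM) with 50 uM GDP; compounds pin-transferred to 9.74 nM–152 uM final (activator) or from 7.32 nM upwards (inhibitor). Fluorescence Ex/Em 480/540 nm read at 5 and 30 min, then after adding cAMP or buffer, at room temperature.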
Potency is the fitted concentration of half-maximal effect.

| SMILES | Potency | activation |
| --- | --- | --- |
| COc1ccc(OC)c(NC(=O)C2(C)CCN2CCc2ccccc2)c1 (stereo not given) | inconclusive: 5620 nM [activator, full curve, poor fit] |  |
| CC(C)=CCc1c(O)cc2oc3c(CC=C(C)C)c(O)c(O)c(CC=C(C)C)c3c(=O)c2c1O |  | inconclusive: 11.5% [activator] |
| O=S(=O)(Nc1nccs1)c1ccc(Nc2nnc(-c3ccccc3)c3ccccc23)cc1 |  | inactive: 17.5% [at 30.8 µM] |
| OC1CCN(c2c3c(nc4cc(-c5cccc(F)c5)nn24)CCCC3)CC1 | inconclusive: 15800 nM [activator, partial curve] |  |
| CN(C)c1ccc(-c2[nH][nH]c(=O)c2NC(=O)c2ccc3ccccc3n2)cc1 | inconclusive: 7940 nM [activator, partial curve] |  |
| CC1CC(C)CN(C(=S)SCc2nc(N)nc(Nc3ccccc3)n2)C1 (stereo not given) | inconclusive: 17800 nM [activator, partial curve, poor fit] |  |
| CC1Cc2nc(SCC(=O)OCc3ccccc3)n(C)c(=O)c2S1 (stereo not given) |  | inconclusive: 50.5% [activator] [at 30.8 µM] |
| O=c1nc(/C=C/c2cccn2-c2ccc([N+](=O)[O-])cc2)cc(C(F)(F)F)[nH]1 | inconclusive: 2510 nM [activator, full curve, poor fit] |  |
| Cc1[nH]n(-c2ccccc2)c(=O)c1C=Nc1ccc(S(=O)(=O)N=C(N)N)cc1 | inconclusive: 1000 nM [activator, full curve, poor fit] |  |
| CC(C)C[C@H]1COCCS(=O)(=O)N1Cc1ccc(Cl)c(Cl)c1 | inconclusive: 20 nM [activator, full curve, poor fit] |  |
| COc1cccc(OCCOc2ccc(/C=C3\C(=N)N4N=C(S(C)(=O)=O)SC4=NC3=O)cc2OC)c1 |  | inactive: 10.2% |
| CCOC(=O)c1ccccc1NC(=O)c1c(C)oc2ncnc(N3CCOCC3)c12 |  | inconclusive: 69.2% [activator] |
| CCOC(=O)C(C)Sc1ncnc2c1nnn2-c1ccc(F)cc1 (stereo not given) |  | inconclusive: 52.1% [activator] [at 30.8 µM] |
| O=C(CS(=O)(=O)c1ccccc1)c1cc2ccccc2oc1=O |  | inconclusive: 48.8% [activator] [at 30.8 µM] |
| Cc1ccccc1NC(=O)CN1C(=O)N/C(=C\c2ccccc2OCc2ccc(C(=O)O)cc2)C1=O |  | inactive: 7.15% |
| Oc1ccc(Br)cc1C=Nc1cccn2cc(-c3ccccc3)nc12 | inconclusive: 1260 nM [activator, full curve, poor fit] |  |
| CC#C[C@@H](CC)c1ccc2ccn(C)c2c1 | inconclusive: 794 nM [activator, full curve, poor fit] |  |
| Cc1cccc(NCC(=O)N/N=C\c2ccc[nH]2)c1 | inconclusive: 8.9 nM [activator, full curve, poor fit] |  |
| O=S(=O)(Nc1nc2ccc(Cl)cc2s1)c1cccs1 | inconclusive: 141 nM [activator, full curve, poor fit] |  |
| N#CC(c1ccccc1)C(CC(=NO)c1ccccc1)c1ccccc1 (stereo not given) | inconclusive: 1000 nM [activator, full curve, poor fit] |  |
| Cc1ccc(-c2ccc(CN3C(C(C)C)C(=O)N(Cc4cn(CCC5OCCO5)nn4)CCS3(=O)=O)cc2)c(C)c1 (stereo not given) | inconclusive: 11200 nM [activator, partial curve] |  |
| Nc1ccc(C(=O)N2CCN(S(=O)(=O)c3ccc(Cl)s3)CC2)cc1[N+](=O)[O-] | inconclusive: 631 nM [activator, full curve, poor fit] |  |
| Cc1cc2oc(=O)c(CC(=O)O)c(C)c2c2occ(C(C)(C)C)c12 |  | inconclusive: 34.3% [activator] |
| O=S(=O)(Nc1ccccc1-c1ccccc1)c1ccccc1 |  | inactive: 8.78% |
| Cc1ccc2nc(-c3cccc(Br)c3)c(Cc3ccccn3)n2c1 |  | inactive: 1.82% |
| Cc1cc(C(=O)Nc2ccon2)c(C)o1 |  | inactive: 16.1% |
| Cc1occc1C(=O)N/N=C/C1=C(N2CCOCC2)C(=C/c2ccc(Cl)cc2Cl)/CC1 |  | inactive: -17.7% |
| COC(=O)C1=CN(c2c(C)cc(C)cc2C)C(N)=C(C#N)C1c1cccc(F)c1 (stereo not given) | inconclusive: 20000 nM [activator, partial curve, poor fit] |  |
| Cc1cc(C(C)(C)C)cc(C)c1COC(=O)c1cccnc1 |  | inactive: -20.8% |
| CC(C)=CCc1c(O)cc(O)c2c1OC(c1ccc(O)cc1)CC2=O (stereo not given) | inconclusive: 12600 nM [activator, partial curve, poor fit] |  |

Filtered by structure, the entries above containing a COOH group (two)

| SMILES | Potency | activation |
| --- | --- | --- |
| Cc1ccccc1NC(=O)CN1C(=O)N/C(=C\c2ccccc2OCc2ccc(C(=O)O)cc2)C1=O |  | inactive: 7.15% |
| Cc1cc2oc(=O)c(CC(=O)O)c(C)c2c2occ(C(C)(C)C)c12 |  | inconclusive: 34.3% [activator] |
